# Data from patent USRE34387E, “Method for restoring depleted purine nucleotide pools” (priority 1988, dated 1993).
# The name of at least one read-out is uncertain.
# Assay: Serum urate concentrations after AICAriboside infusion
# Type: in vivo, adult mongrel dogs
# Settings: 8 mmol infused; 42 min of infusion; from serum urate
# Description: Animal Preparation--Seven adult mongrel dogs were anesthetized intramuscularly with 40 mg of morphine sulfate and intravenously with 80 mg/kg of chloralose, an endotraceal tube was inserted, and ventilation was maintained with an Emerson volume-cycled respirator and 100% oxygen. The heart was exposed through a left lateral thoracotomy, polyvinyl chloride catheters (3-mm outer diameter) were inserted into the left atrium and into the aorta through the right femoral artery, and a Statham TTQ electromagnetic flow meter probe was positioned around the ascending aorta. […] Aortic flow was measured with a Howell Instruments Series 1000 Flowmeter, and stroke volume and cardiac output were calculated from the aortic flow measurement. All hemodynamic data were monitored continuously throughout the course of the study. […]
# After hemodynamic parameters had stabilized, regional myocardial blood flow was measured by injecting radioactively labled microspheres. […] Venous and arterial blood samples were also obtained at 42 min. of infusion, and regional myocardial blood flow was measured at 10 and 39 min. of AICAriboside infusion. […]
# Other Methods--Serum urate was determined by the enzymatic spectrophotometric method as previously described in Liddle et al., J. Lab. […]
smiles,measurement,value
"NC(=O)c1ncn([C@@H]2O[C@H](CO)[C@@H](O)[C@H]2O)c1N [AICAriboside, 5-amino-4-imidazolecarboxamide riboside]",fraction of infused AICAriboside metabolized to purine nucleotides and subsequently catabolized,at least 25%
